# Data as given in the supplement of paper PMC3334620.
# Over roughly 33,000 sequences, “E-score (-0.5 to 0.5)” has its median near -0.016; the highest 2% begin near 0.3. Some of the results follow.
# Target: T1, Yer184c (UniProt P39961)
# T1 sequence: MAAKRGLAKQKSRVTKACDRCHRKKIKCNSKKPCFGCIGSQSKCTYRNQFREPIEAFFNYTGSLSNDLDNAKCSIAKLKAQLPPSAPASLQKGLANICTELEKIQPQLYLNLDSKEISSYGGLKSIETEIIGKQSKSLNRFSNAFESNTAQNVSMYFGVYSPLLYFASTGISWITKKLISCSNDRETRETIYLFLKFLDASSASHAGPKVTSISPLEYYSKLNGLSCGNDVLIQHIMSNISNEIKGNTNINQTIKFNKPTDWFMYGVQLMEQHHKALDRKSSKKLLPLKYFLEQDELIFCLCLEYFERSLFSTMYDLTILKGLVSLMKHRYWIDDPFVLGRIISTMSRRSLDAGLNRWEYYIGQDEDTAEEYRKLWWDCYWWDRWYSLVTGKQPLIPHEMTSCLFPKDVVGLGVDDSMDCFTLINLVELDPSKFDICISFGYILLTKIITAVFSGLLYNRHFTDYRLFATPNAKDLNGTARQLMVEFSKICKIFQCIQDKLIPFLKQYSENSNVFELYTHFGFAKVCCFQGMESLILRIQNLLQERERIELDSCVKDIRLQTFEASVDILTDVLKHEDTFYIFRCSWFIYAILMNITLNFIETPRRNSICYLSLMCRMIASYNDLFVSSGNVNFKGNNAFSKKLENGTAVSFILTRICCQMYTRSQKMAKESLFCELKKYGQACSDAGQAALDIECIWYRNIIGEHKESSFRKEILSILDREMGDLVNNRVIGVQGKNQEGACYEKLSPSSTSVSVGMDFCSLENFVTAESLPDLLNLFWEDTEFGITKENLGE
# Experiment: PBM E-score (8-mer binding enrichment) (E-score (-0.5 to 0.5)); higher = stronger / more preferred TF binding
# Details: protein concentration: 100 nM; construct: GST-full length
# Method: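 Universal 'all 10-mer' protein binding microarrays (Agilent AMADID 015681) probed with GST-tagged S. cerevisiae TFs (full-length or DBD) made by in vitro transcription/translation (PURExpress), about 100-200 nM. Bound TF was detected with fluorescent anti-GST. Each ungapped 8-mer (which stands for itself and its reverse complement) is scored by the PBM enrichment score (E-score), a modified Wilcoxon-Mann-Whitney statistic from -0.5 to +0.5, computed with the Universal PBM Analysis Suite. Scale: above 0.35 generally sequence-specific binding.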
row,Sequence,PBM E-score
1,CTGCACCA,-0.226
2,CCAGGCAA,-0.0874
3,CTTTTGTA,0.0775
4,AGCGAGAC,-0.185
5,CTCATGCC,-0.186
6,ACGACGGG,-0.0926
7,CGCCGTGA,0.064
8,CACGGGGC,-0.0464
9,AGAGGTCA,-0.126
10,ATATAATA,0.302
11,CACGCGTC,0.0952
12,GGGTAACA,-0.166
13,CGCCATGC,-0.0946
14,ATCACTTC,0.0149
15,CCCTTAAC,-0.289
16,AGACCCTC,-0.147
17,CGCCTTAA,0.0453
18,CGTGGAAG,0.057
19,GGGGGACA,-0.22
20,CATTCACG,0.138
21,GGTGTGGA,-0.0676
22,GGACCTAA,0.0719
23,GCTCTGCC,-0.0356
24,CCCTAGCA,-0.267
25,CGACGAAG,0.114

row,Sequence,PBM E-score
1,GTGTAGAA,-0.0588
2,CTATAGAC,-0.135
3,GGTTTGCA,0.05
4,AGCTTGGG,0.0196
5,ACTACCTA,-0.0472
6,GAAATGAA,0.245
7,CAGAATGA,0.0587
8,ATCCTTGC,-0.0624
9,AACCATTG,-0.0191
10,CCAAAGCA,0.0491
11,AATTACCC,-0.0393
12,CCAGAACC,-0.081
13,TGGCTCAA,-0.0833
14,AATCTGAT,0.0842
15,CCTCTTAC,-0.131
16,CGTTCAAA,0.149
17,CATTGCGA,-0.106
18,AGTTCCTG,-0.18
19,CATTGAGA,0.021
20,GGATTCCC,-0.173
21,GGGTTAAC,0.169
22,AGCAAACA,-0.00612
23,CAGCGTCA,-0.113
24,CCAGGTCA,-0.214
25,AGGCTTAA,-0.0796

# In another format: entries from further up.
row	Sequence	PBM E-score
7	CAGAATGA	0.0587
10	CCAAAGCA	0.0491
14	AATCTGAT	0.0842

# Further records follow:

row,Sequence,PBM E-score
1,AAATGAAA,0.287
2,CGTCGGAA,0.24
3,CGACTCGA,0.0386
4,ATCTCCGC,0.14
5,GGTATGTA,-0.219
6,CAAGAACA,0.0117
7,CCACTTGC,-0.194
8,ACCCATCT,-0.081
9,CGCAAAGC,0.16
10,ACGAGGGA,-0.141
11,CTCCGAAA,0.266
12,GAGATGGA,0.0577
13,GATTAGGA,0.099
14,CTCAGGAA,-0.169
15,AGTTTAAG,0.0408
16,CTGAGACA,-0.0588
17,TTAAGCAA,0.0761
18,ATCCAGTG,0.0535
19,CCGCGTTA,0.0753
20,GCGCTCGA,-0.183
21,TAATTCTA,0.159
22,CTCCTGGA,-0.336
23,GCCGGACA,0.36
24,ACGTCGGG,-0.113
25,GACTGTGA,-0.0703

row,Sequence,PBM E-score
1,AGCCCATA,-0.198
2,CTAGATGC,-0.0167
3,AGGATTCC,-0.169
4,AGCTCTTA,-0.037
5,GGCCGCCA,-0.159
6,CCATCTCC,0.141
7,AGGAACCT,0.0988
8,ATGTTATA,0.112
9,ACTCGCTC,-0.0141
10,ATAGGCAA,-0.214
11,GAATTACA,0.191
12,GCGGGAAA,0.223
13,ATGTCGGA,0.202
14,GGCTGAAA,0.133
15,CTCTCGCC,-0.18
16,AGATCGAA,0.196
17,CGTGACCC,-0.02
18,AGTGGCCG,0.0237
19,CCCATCGC,-0.244
20,GTTTCTTA,0.00026
21,AAAAGGTT,-0.0664
22,ATTCATCC,0.00529
23,AGATAGTC,-0.101
24,CCATAATA,0.113
25,CCCTGAGG,-0.338

row,Sequence,PBM E-score
1,CAGTGATC,-0.00806
2,TCTAGAGA,-0.291
3,CGTATTAG,0.227
4,CGGAGGGA,0.0777
5,GAGAAACA,0.136
6,GAGTGTGA,-0.00585
7,ATCCCTAA,-0.202
8,CGGCCAAC,0.131
9,GCAGCGGC,-0.0532
10,AAAGCCGC,0.188
11,CACACGTA,-0.348
12,CCGTTGCG,0.148
13,ACGGTTAT,-0.0104
14,CAATGAGA,-0.105
15,ACCGTCCT,-0.186
16,AACGATTG,0.0036
17,AAATTGGA,0.0478
18,ACCAGGTA,-0.157
19,AGGTAGTG,-0.0589
20,CCTTGGAG,-0.114
21,GAATAAAA,0.178
22,AGTCACCC,-0.176
23,CGTCGGTA,0.022
24,ATATGATG,-0.00913
25,GTTGTAAA,0.00358

# Some values from the list:
# PBM E-score, TCTAGAGA is entered as -0.291
# PBM E-score, CCGTTGCG is entered as 0.148

# The results go on.

row,Sequence,PBM E-score
1,TCCTAAGA,-0.0114
2,AAACATGG,-0.032
3,ATGCACAA,-0.0784
4,AGGGCAGC,-0.143
5,ACCAGCGC,-0.161
6,GCTTGATA,0.0725
7,GCATACAA,0.0771
8,AACGGGAA,0.25
9,ACGTGTAG,-0.216
10,ACCACGTG,-0.117
11,GCATCCCC,-0.168
12,ACGGCGAG,-0.0486
13,GGACTCTA,-0.218
14,ATATCGGG,0.0298
15,AATGAAGT,-0.00892
16,TCAAATGA,0.00719
17,ACAATCGA,0.157
18,ACGCGCGG,-0.0239
19,CTCATAGA,-0.03
20,TATACTGA,0.234
21,ACAAAGTG,-0.0907
22,ATGAGGAC,-0.147
23,GCCATCGC,-0.196
24,CGTTTGCC,0.0965
25,AGATAATG,0.154

row,Sequence,PBM E-score
1,ATTATTAA,0.203
2,CACGCCGG,0.267
3,TGAAAAAA,0.245
4,TGTGATAA,0.112
5,AAGTGCAA,-0.096
6,CACATGGA,-0.177
7,TGATTCAA,0.251
8,TCGCCCAA,-0.0759
9,ATGAATAC,0.0157
10,CAACCGGG,0.14
11,AGAAGTCC,0.00141
12,CTGAACGC,-0.056
13,CAATACGC,-0.0176
14,AGGTGAGG,-0.122
15,GCCCTGCC,-0.133
16,CCCGGCAA,0.335
17,GCATCACC,-0.26
18,TTCCTAAA,0.157
19,GGTGACAA,0.162
20,CATAATCG,0.0775
21,ATTAAGTC,0.123
22,CTACCGCA,-0.144
